## Screening data

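Selective DUX4 reporter inhibition in doxycycline-induced 293T-iDUX4 cells, scored as Gaussia percent activity minus Italica percent activity, after a 24-hour treatment.
The test concentration is not given here.
Percent difference between the Gaussia and Italica channels; more negative values mean more selective suppression of the DUX4 reporter, and higher values mean less activity.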

Values are in %.
The controls that fix the scale are not given here.
Common to all entries: measured here: selective DUX4 reporter inhibition.
Part of the compounds only, not a random draw; the main read-out is not listed here.

With C[C@H]1CN([C@@H](C)CO)C(=O)c2c(c3ccccc3n2C)-c2ccccc2CO[C@H]1CN(C)C(=O)Nc1ccc(F)cc1 the assay gave Gaussia minus Italica difference -2.95%. For COc1ccccc1S(=O)(=O)N1CC[C@@H]2[C@@H](CO)Nc3ccc(-c4ccc(F)cc4)cc3[C@@H]21 the result was Gaussia minus Italica difference 22.15%. With CC(C)NC(=O)N1CCCCN2[C@H](CO)[C@H](c3ccc(C#Cc4ccccc4F)cc3)[C@@H]2C1 the assay gave Gaussia minus Italica difference -18.6%. With O=C(Nc1ccc(F)cc1)N1CC(=O)N2[C@H](CO)[C@@H](c3ccc(C#Cc4ccccc4)cc3)[C@@H]2C1 the assay gave Gaussia minus Italica difference -5.365%. For O=C(Nc1ccccc1F)N1CC(=O)N2[C@@H](CO)[C@@H](c3ccc(-c4cccnc4)cc3)[C@@H]2C1 the result was Gaussia minus Italica difference -14.15%. COc1ccc(C#Cc2ccc([C@@H]3[C@H]4CN(C(C)=O)CC(=O)N4[C@H]3CO)cc2)cc1 read Gaussia minus Italica difference -1.739%. With COc1ccccc1S(=O)(=O)N1CC[C@@H]2[C@H](CO)Nc3ccc(-c4cccc(C#N)c4)cc3[C@@H]21 the assay gave Gaussia minus Italica difference 4.373%. For C[C@@H]1CN([C@H](C)CO)C(=O)c2c(c3ccccc3n2C)-c2ccccc2CO[C@@H]1CN(C)C(=O)c1cc(Cl)cc(Cl)c1 the result was Gaussia minus Italica difference -14.73%.

Result for COCC(=O)N1CC2(CCN(Cc3ccccc3)CC2)c2c([nH]c3cc(OC)ccc23)[C@@H]1CO was Gaussia minus Italica difference 17.59%. With COc1ccc(C#Cc2ccc([C@H]3[C@@H](CO)N4CCCCN(C(=O)Nc5ccccc5)C[C@H]34)cc2)cc1 the assay gave Gaussia minus Italica difference -1.278%. O=C(Nc1cc(F)ccc1F)N[C@@H]1CC[C@@H](CC(=O)N2CCc3ccccc3C2)O[C@@H]1CO read Gaussia minus Italica difference -2.367%. Result for CCN1[C@H](C(=O)N[C@@H](C)c2ccccc2)[C@@H](CO)[C@@H]2Cn3c(ccc(-c4cccc(F)c4)c3=O)[C@@H]21 was Gaussia minus Italica difference -4.685%. CN1c2ccc(-c3cccc(C#N)c3)cc2[C@@H]2[C@@H](CCN2S(=O)(=O)c2ccccc2)[C@H]1CO read Gaussia minus Italica difference 0.3115%. Result for O=C(c1ccccc1F)N1CC[C@@H]2[C@H](CO)Nc3ccc(C#Cc4ccccc4F)cc3[C@@H]21 was Gaussia minus Italica difference -19.47%. With O=C(Cc1ccccc1)N1CC2(C1)[C@H](c1ccccc1)[C@H](CO)N2Cc1cccc(F)c1 the assay gave Gaussia minus Italica difference -0.1809%. With O=C(C[C@H]1CC[C@H]2[C@@H](COC[C@H](O)CN2Cc2cc(F)ccc2F)O1)N1CCc2ccccc2C1 the assay gave Gaussia minus Italica difference -2.546%.

For O=C(C[C@H]1C[C@H]2c3cc(NS(=O)(=O)c4ccc(F)cc4)ccc3O[C@H]2[C@H](CO)O1)NCc1cccc(F)c1 the result was Gaussia minus Italica difference -2.931%. Result for C[C@@H]1CN([C@H](C)CO)C(=O)c2ccccc2-c2ccccc2CO[C@@H]1CN(C)Cc1ccc(-c2ccccc2)cc1 was Gaussia minus Italica difference -18.79%. For N#Cc1cccc(-c2ccc3c(c2)[C@H]2[C@H](CCN2S(=O)(=O)c2ccccc2F)[C@H](CO)N3)c1 the result was Gaussia minus Italica difference 6.293%. COc1ccc2c3c(n(C)c2c1)[C@@H](CO)N(Cc1ccncc1)CC31CCN(C(=O)Cc2ccncc2)CC1 gave Gaussia minus Italica difference 5.818%.

The results are deposited in PubChem (AID1224904; Broad Institute, 2016).